By pKd is commonly meant the negative decadic logarithm of the Kd, by convention in mol/L.

Results on 48 sequences are retold here after publication PMC3737563, “Investigation of DNA sequence recognition by a streptomycete MarR family transcriptional regulator through surface plasmon resonance and X-ray crystallography” (Nucleic Acids Research, 2013).

pKd: −log10 of the molar value. For at least one entry, the source does not settle the construct or the ends of the probe. For part of these data: Weaker means in comparison with the reference protein, sequence or condition of that experiment. For part of these data: At least one verdict was read from the data and is not stated in words by the source. Tags and fusion partners may be left off the protein sequences shown. For part of these data: Whether high values mean tight binding is not given here for every scale.

One data set deals with T1, SCO3205 (MarR family regulator) (Streptomyces coelicolor) (UniProt Q9KYU1).
T1 sequence (looked up): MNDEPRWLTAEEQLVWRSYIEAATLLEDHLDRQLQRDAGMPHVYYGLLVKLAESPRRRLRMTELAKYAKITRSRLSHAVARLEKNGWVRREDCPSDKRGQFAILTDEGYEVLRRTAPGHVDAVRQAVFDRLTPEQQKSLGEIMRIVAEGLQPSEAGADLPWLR
As to the kind of experiment: SPR. The settings on record: 50 nM SCO3205; SPR (ReDCaT, Biacore T200) in HBS-EP+: 10 mM HEPES pH 7.4, 150 mM NaCl, 3 mM EDTA, 0.05% P20, 20°C; recombinant protein; residues 1-163; protein details: N-terminal His tag plus TEV site, not removed; label: biotin linker S6 hybridised to overhang. For orientation: SPR reads the build-up and loss of mass on a sensor chip optically.
For “CAATACCTGAACTCTCAATCTTTA / TAAAGATTGAGAGTTCAGGTATTGCCTACCCTACGTCCTCCTGC [O3204_T6C]”, the binding result is given as “binds more weakly”.
Regarding “CAATACTTGAACTCTCACTCTTTA / TAAAGAGTGAGAGTTCAAGTATTGCCTACCCTACGTCCTCCTGC [O3204_A17C]”, the binding result is recorded as “binds more weakly”.
“CAATACTGGAACTCTCAATCTTTA / TAAAGATTGAGAGTTCCAGTATTGCCTACCCTACGTCCTCCTGC [O3204_T7G]”: the binding result is reported as “binds more weakly”.
For the sequence “CAATACTTGGACTCTCAATCTTTA / TAAAGATTGAGAGTCCAAGTATTGCCTACCCTACGTCCTCCTGC [O3204_A9G]”, the binding result is on record as “binds more weakly”.
In the case of “CAATACTTGAACTCTCGATCTTTA / TAAAGATCGAGAGTTCAAGTATTGCCTACCCTACGTCCTCCTGC [O3204_A16G]”, the binding result is reported as “binds more weakly”.
Still for that read-out and setting: as for “CAATACTTGAACTCTCAGTCTTTA / TAAAGACTGAGAGTTCAAGTATTGCCTACCCTACGTCCTCCTGC [O3204_A17G]”, the entry is “binds more weakly”.
Turning to “CAATACGTGAACTCTCAATCTTTA / TAAAGATTGAGAGTTCACGTATTGCCTACCCTACGTCCTCCTGC [O3204_T6G]”, the binding result is reported as “binds more weakly”.

Staying with this data set, now noted: 100 nM SCO3205; SPR (ReDCaT, Biacore T200) in HBS-EP+: 10 mM HEPES pH 7.4, 150 mM NaCl, 3 mM EDTA, 0.05% P20, 20°C; recombinant protein; residues 1-163; protein details: N-terminal His tag plus TEV site, not removed; label: biotin linker S6 hybridised to overhang.
Consider “TTTTGTTTAATGTTCAAGGAACCGTCTCG / CGAGACGGTTCCTTGAACATTAAACAAAACCTACCCTACGTCCTCCTGC [fragment_12]”, for which the binding signal (% of theoretical Rmax) turned out to be 100.

Still in this data set, the particulars now being: SPR (ReDCaT, Biacore T200) in HBS-EP+: 10 mM HEPES pH 7.4, 150 mM NaCl, 3 mM EDTA, 0.05% P20, 20°C; recombinant protein; residues 1-163; protein details: N-terminal His tag plus TEV site, not removed; label: biotin linker S6 hybridised to overhang.
Take “ACGGCACGTAAAGATTGAGA / TCTCAATCTTTACGTGCCGTCCTACCCTACGTCCTCCTGC [O3204_LH_Δ16]”: the binding result is on record as “binds more weakly”.
Still for that read-out and setting: as for “ACGGCACGTAAAGATTGAGAGTTCAAGT / ACTTGAACTCTCAATCTTTACGTGCCGTCCTACCCTACGTCCTCCTGC [O3204_LH_Δ8]”, the entry is “binds more weakly”; as for “CGAGACGGTTCCTTGAACATTAAACAAA / TTTGTTTAATGTTCAAGGAACCGTCTCGCCTACCCTACGTCCTCCTGC [O3205_LH_Δ8]”, “binds more weakly”.

Staying with this data set, now noted: steady-state 1:1 fit; SPR (ReDCaT, Biacore T200) in HBS-EP+: 10 mM HEPES pH 7.4, 150 mM NaCl, 3 mM EDTA, 0.05% P20, 20°C; recombinant protein; residues 1-163; protein details: N-terminal His tag plus TEV site, not removed; label: biotin linker S6 hybridised to overhang.
“ATTTTGTTTAATGTTCAAGGAACC / GGTTCCTTGAACATTAAACAAAATCCTACCCTACGTCCTCCTGC [O3205_24mer]”: the pKd was 8.62.

A further data set concerns the target T1, SCO3205 (MarR family regulator) (Streptomyces coelicolor). As to the kind of experiment: SPR (ReDCaT). Conditions: 50 nM SCO3205 dimer; HBS-EP+ buffer: 10 mM HEPES pH 7.4, 150 mM NaCl, 3 mM EDTA, 0.05% (v/v) surfactant P20; 20 C; Biacore T200, ReDCaT SA chip; high values mean tight binding; recombinant protein; residues 1-163; protein details: N-terminal His tag plus TEV site, not removed; label: biotin linker S6 hybridised to overhang.
Take “CAATACTTGAGCTCTCAATCTTTA (double strand) [O3204_A10G]”: the binding signal amounted to 95.6 %Rmax.
For the sequence “CAATACTAGAACTCTCAATCTTTA (double strand) [O3204_T7A]”, the binding signal stood at 96.5 %Rmax.
With “CAATACTTGACCTCTCAATCTTTA (double strand) [O3204_A10C]”, the binding signal came out at 96 %Rmax.
With “CAATACCTGAACTCTCAATCTTTA (double strand) [O3204_T6C]”, the binding signal was 90.7 %Rmax.
Consider “CAATACTTGAACTCTGAATCTTTA (double strand) [O3204_C15G]”, for which the binding signal was 95.4 %Rmax.
Consider “CAATACGTGAACTCTCAATCTTTA (double strand) [O3204_T6G]”, for which the binding signal stood at 97.1 %Rmax.
Consider “CAATACTTGCACTCTCAATCTTTA (double strand) [O3204_A9C]”, for which the binding signal turned out to be 93 %Rmax.
With “CAATACTTGAACTCTCACTCTTTA (double strand) [O3204_A17C]”, the binding signal amounted to 103 %Rmax.
With “CAATACTTGAACTCCCAATCTTTA (double strand) [O3204_T14C]”, the binding signal is 85.3 %Rmax.
As for “CAATACTTGTACTCTCAATCTTTA (double strand) [O3204_A9T]”, the binding signal came to 99.4 %Rmax.
Turning to “CAATACTTGAACTCTCGATCTTTA (double strand) [O3204_A16G]”, the binding signal stood at 73.3 %Rmax.
In the case of “CAATACTTGGACTCTCAATCTTTA (double strand) [O3204_A9G]”, the binding signal stood at 78.7 %Rmax.
As to “CAATACTTGAACTCTCCATCTTTA (double strand) [O3204_A16C]”, the binding signal came to 102 %Rmax.
“CAATACTTGAACTCTCAGTCTTTA (double strand) [O3204_A17G]”: the binding signal came out at 105 %Rmax.
In the case of “CAATACATGAACTCTCAATCTTTA (double strand) [O3204_T6A]”, the binding signal came out at 89.2 %Rmax.
On to “CAATACTTGAACTCTTAATCTTTA (double strand) [O3204_C15T]”, for which the binding signal was 102 %Rmax.
Still for that read-out and setting: as for “CAATACTTGAACTCACAATCTTTA (double strand) [O3204_T14A]”, the figure is 109 %Rmax; as for “CAATACTTGAACTCTCATTCTTTA (double strand) [O3204_A17T]”, 100 %Rmax; as for “CAATACTTGAACTCTAAATCTTTA (double strand) [O3204_C15A]”, 111 %Rmax.
For “CAATACTTGAACTCTCTATCTTTA (double strand) [O3204_A16T]”, the binding signal worked out at 104 %Rmax.
“CAATACTTGAACTCTCAATCTTTA (double strand) [O3204_WT]”: the binding signal turned out to be 98.6 %Rmax.
Consider “CAATACTTGAACTCGCAATCTTTA (double strand) [O3204_T14G]”, for which the binding signal amounted to 109 %Rmax.
On to “CAATACTTGATCTCTCAATCTTTA (double strand) [O3204_A10T]”, for which the binding signal amounted to 104 %Rmax.
Still for that read-out and setting: as for “CAATACTCGAACTCTCAATCTTTA (double strand) [O3204_T7C]”, the figure is 74.2 %Rmax; as for “CAATACTGGAACTCTCAATCTTTA (double strand) [O3204_T7G]”, 88.1 %Rmax.

Still in this data set, the particulars now being: 100 nM SCO3205 dimer; HBS-EP+ buffer: 10 mM HEPES pH 7.4, 150 mM NaCl, 3 mM EDTA, 0.05% (v/v) surfactant P20; 20 C; Biacore T200, ReDCaT SA chip; high values mean tight binding; recombinant protein; residues 1-163; protein details: N-terminal His tag plus TEV site, not removed; label: biotin linker S6 hybridised to overhang; counted as no binding.
As to “ACGGCACGTAAAGATTGAGAGTTC (double strand) [O3204_LH_Δ12]”, the binding signal came out at 1.5 %Rmax.
Regarding “ACGGCACGTAAAGATTGAGAGT (double strand) [O3204_LH_Δ14]”, the binding signal worked out at 1.4 %Rmax.
Regarding “CGAGACGGTTCCTTGAACATTA (double strand) [O3205_LH_Δ14]”, the binding signal amounted to 1.6 %Rmax.
As to “ACGGCACGTAAAGATTGAGA (double strand) [O3204_LH_Δ16]”, the binding signal was 1.4 %Rmax.

The data set is the same for the next values; noted with them: 100 nM SCO3205 dimer; HBS-EP+ buffer: 10 mM HEPES pH 7.4, 150 mM NaCl, 3 mM EDTA, 0.05% (v/v) surfactant P20; 20 C; Biacore T200, ReDCaT SA chip; high values mean tight binding; recombinant protein; residues 1-163; protein details: N-terminal His tag plus TEV site, not removed; label: biotin linker S6 hybridised to overhang; letters put together from the description; counted as no binding.
With “CGGCGGCCATGGCTACTCCAATACTTGAA (double strand) [fragment_3]”, the binding signal was 0.5 %Rmax.
Turning to “ATCTTTACGTGCCGTCAATCTACGCCGAT (double strand) [fragment_8]”, the binding signal amounted to 0.95 %Rmax.
In the case of “GCGCTCCCGGACGGCGGCGGCCATGGCTA (double strand) [fragment_1]”, the binding signal stood at 0.55 %Rmax.
Regarding “CAAGGAACCGTCTCGTACAGTGGGACACA (double strand) [fragment_14]”, the binding signal is 0.7 %Rmax.
Turning to “CGGACGGCGGCGGCCATGGCTACTCCAAT (double strand) [fragment_2]”, the binding signal amounted to 0.45 %Rmax.
With “CGTGCCGTCAATCTACGCCGATTTTGTTT (double strand) [fragment_9]”, the binding signal came to 0.6 %Rmax.
Same read-out and setting: to “TAATGTTCAAGGAACCGTCTCGTACAGTG (double strand) [fragment_13]” belongs 0.65 %Rmax.
